Results as given in the supplement of paper PMC10849652.
This is one part of the list.

Chains of the proteins cited; added tags and fusions are not shown. Lines headed by an entry give the natural chain unless they say otherwise; changes in a name come on top.
UniProt Q9NPA8: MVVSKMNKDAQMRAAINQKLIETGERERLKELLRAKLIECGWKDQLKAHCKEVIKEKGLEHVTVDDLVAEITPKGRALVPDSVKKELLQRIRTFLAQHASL
UniProt Q08426: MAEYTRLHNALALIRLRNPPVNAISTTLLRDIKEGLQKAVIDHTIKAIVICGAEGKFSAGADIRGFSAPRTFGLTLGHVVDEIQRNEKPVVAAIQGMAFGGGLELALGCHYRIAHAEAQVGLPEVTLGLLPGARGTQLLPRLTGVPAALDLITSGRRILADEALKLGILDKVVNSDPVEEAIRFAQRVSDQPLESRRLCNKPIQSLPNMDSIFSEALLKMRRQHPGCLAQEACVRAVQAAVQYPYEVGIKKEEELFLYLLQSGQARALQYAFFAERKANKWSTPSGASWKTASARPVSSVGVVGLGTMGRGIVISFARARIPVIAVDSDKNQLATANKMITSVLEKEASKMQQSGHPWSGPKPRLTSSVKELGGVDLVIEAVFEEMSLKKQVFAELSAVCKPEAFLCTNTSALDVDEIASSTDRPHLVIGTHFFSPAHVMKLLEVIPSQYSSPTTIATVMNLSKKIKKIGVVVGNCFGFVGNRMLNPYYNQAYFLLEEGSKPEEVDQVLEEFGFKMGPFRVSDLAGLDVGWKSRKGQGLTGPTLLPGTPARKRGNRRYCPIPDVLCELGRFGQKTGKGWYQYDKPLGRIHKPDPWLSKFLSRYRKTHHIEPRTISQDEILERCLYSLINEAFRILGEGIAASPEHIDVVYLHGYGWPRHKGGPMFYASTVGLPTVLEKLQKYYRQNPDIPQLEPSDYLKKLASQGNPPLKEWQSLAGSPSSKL
UniProt P50402: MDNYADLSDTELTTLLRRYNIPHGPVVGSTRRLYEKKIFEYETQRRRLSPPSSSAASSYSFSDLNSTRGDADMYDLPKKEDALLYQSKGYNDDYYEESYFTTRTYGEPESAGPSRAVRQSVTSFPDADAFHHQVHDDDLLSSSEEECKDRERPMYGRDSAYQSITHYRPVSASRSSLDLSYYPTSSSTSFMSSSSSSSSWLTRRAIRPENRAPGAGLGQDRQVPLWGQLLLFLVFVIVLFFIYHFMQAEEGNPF
UniProt Q9NRA8: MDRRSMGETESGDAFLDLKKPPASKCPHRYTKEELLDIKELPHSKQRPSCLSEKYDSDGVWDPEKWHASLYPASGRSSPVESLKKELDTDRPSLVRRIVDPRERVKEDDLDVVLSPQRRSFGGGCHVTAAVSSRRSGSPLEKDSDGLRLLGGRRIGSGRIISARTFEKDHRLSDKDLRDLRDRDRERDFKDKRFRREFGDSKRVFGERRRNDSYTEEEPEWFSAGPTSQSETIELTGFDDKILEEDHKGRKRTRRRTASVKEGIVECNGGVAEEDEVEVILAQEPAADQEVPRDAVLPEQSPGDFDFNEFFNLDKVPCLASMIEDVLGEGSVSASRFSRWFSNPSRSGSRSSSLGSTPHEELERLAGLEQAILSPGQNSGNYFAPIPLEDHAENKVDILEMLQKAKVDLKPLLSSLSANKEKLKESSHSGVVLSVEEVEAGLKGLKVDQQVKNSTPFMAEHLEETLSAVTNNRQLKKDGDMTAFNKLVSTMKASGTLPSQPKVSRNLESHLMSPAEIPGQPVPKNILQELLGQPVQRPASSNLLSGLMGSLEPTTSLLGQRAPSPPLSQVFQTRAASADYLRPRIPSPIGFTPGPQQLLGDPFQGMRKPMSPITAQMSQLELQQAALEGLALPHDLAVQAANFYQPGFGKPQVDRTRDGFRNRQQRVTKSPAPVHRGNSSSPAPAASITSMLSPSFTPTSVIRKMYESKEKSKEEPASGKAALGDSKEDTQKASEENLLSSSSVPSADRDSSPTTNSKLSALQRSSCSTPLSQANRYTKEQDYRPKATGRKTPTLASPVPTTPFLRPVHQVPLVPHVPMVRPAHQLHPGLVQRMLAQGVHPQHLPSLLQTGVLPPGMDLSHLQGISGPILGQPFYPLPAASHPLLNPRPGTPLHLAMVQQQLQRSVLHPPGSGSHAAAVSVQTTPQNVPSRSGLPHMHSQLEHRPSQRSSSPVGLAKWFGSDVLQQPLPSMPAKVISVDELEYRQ
UniProt P78344: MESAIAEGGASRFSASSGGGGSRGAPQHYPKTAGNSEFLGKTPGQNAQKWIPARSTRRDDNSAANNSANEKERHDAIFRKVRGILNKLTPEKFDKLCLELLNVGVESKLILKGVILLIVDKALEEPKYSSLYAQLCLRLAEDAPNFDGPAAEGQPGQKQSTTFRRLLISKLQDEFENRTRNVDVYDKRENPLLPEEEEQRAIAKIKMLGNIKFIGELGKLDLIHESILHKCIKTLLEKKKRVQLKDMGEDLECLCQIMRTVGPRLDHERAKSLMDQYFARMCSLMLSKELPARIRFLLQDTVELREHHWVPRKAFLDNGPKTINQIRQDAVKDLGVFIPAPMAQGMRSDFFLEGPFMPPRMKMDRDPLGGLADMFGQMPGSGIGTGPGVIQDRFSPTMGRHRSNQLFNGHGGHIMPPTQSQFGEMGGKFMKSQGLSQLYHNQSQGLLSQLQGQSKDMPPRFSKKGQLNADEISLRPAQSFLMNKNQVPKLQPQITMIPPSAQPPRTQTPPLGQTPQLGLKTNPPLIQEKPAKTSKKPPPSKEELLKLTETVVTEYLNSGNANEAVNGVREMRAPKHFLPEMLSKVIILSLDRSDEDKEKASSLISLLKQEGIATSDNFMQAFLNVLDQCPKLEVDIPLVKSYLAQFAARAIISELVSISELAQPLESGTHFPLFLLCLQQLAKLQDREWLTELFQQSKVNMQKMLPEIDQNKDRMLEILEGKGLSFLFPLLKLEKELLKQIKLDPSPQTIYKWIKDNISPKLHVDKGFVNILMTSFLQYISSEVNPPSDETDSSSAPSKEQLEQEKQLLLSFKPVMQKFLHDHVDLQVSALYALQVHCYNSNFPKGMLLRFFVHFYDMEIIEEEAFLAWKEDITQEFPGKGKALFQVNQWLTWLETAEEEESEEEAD
UniProt P60842, whole entry, looked up: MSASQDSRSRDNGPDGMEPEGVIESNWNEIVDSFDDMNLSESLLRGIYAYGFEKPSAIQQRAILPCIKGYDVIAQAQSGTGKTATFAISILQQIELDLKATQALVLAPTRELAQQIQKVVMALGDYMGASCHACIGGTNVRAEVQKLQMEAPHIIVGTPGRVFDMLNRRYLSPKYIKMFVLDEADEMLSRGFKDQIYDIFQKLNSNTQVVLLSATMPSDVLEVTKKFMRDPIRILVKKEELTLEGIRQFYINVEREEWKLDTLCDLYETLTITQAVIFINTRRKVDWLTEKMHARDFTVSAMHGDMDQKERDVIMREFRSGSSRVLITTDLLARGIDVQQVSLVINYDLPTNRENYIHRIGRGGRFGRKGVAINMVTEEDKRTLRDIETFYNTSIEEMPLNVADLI
UniProt Q96EB1: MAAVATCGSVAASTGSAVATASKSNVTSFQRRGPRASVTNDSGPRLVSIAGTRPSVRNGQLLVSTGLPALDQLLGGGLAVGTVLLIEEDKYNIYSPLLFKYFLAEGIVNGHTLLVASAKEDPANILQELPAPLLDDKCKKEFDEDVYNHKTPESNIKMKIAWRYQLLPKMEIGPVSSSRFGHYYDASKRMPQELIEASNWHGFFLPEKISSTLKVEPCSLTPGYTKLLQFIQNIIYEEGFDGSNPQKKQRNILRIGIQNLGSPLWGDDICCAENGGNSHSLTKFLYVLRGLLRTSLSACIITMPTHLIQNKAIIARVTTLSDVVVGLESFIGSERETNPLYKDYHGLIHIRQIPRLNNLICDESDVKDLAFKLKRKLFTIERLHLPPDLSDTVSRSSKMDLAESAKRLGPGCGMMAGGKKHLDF
UniProt Q9UHY7: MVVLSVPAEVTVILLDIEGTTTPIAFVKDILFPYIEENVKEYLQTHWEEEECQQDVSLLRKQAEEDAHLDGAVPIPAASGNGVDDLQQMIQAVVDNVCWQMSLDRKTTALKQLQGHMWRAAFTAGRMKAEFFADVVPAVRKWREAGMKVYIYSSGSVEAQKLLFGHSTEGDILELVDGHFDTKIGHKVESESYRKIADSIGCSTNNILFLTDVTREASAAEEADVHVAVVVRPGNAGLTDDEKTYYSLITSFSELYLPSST
UniProt Q14240, whole entry, looked up: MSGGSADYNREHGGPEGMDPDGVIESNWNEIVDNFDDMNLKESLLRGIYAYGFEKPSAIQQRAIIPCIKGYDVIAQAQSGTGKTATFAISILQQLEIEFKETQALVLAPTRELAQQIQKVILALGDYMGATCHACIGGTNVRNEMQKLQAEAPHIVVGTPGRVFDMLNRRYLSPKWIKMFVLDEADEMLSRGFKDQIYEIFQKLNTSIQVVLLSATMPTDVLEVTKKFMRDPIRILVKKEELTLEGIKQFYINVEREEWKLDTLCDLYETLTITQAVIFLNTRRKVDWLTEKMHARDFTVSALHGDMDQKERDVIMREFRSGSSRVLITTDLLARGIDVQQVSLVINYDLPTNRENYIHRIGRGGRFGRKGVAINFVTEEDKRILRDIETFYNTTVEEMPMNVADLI
UniProt O60841: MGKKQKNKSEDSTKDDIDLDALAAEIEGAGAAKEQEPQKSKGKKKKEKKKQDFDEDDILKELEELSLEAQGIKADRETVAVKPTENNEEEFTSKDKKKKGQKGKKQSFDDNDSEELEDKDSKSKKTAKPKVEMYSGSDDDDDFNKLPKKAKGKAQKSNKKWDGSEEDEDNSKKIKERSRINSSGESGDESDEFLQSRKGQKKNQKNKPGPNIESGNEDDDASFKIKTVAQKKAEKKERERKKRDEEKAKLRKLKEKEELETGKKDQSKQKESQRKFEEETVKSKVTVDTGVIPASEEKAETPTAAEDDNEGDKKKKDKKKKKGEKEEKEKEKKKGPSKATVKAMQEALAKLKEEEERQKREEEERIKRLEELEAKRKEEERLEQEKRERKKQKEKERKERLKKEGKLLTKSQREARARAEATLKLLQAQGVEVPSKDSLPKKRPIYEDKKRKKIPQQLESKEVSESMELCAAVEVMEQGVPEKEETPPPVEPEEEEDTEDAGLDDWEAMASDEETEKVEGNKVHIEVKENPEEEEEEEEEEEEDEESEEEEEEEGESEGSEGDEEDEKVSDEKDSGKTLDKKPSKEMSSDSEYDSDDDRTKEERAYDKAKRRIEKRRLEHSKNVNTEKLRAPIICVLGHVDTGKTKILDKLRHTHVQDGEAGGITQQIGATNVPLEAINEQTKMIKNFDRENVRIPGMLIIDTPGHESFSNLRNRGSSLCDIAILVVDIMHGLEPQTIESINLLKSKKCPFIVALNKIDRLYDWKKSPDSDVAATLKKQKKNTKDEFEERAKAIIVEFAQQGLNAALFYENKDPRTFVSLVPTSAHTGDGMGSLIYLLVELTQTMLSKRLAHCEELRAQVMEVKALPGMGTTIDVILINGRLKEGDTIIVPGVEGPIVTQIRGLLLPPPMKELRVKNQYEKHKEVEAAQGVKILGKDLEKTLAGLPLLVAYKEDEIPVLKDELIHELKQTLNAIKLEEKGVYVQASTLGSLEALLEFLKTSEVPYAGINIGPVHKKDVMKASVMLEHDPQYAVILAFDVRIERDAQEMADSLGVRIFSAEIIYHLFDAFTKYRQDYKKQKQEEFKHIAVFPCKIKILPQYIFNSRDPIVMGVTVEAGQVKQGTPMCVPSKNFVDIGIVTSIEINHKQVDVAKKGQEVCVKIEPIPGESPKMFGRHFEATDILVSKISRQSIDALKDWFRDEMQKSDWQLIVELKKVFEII
UniProt Q8TE02: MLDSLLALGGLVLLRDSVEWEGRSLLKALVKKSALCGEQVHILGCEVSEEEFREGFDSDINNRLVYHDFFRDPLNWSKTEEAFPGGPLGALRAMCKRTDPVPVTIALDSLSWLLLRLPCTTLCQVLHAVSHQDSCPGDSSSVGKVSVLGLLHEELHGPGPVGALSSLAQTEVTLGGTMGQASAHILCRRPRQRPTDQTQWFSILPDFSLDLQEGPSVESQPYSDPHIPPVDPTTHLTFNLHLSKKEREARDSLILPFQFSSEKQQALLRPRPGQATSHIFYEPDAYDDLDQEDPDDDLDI
UniProt Q9H223: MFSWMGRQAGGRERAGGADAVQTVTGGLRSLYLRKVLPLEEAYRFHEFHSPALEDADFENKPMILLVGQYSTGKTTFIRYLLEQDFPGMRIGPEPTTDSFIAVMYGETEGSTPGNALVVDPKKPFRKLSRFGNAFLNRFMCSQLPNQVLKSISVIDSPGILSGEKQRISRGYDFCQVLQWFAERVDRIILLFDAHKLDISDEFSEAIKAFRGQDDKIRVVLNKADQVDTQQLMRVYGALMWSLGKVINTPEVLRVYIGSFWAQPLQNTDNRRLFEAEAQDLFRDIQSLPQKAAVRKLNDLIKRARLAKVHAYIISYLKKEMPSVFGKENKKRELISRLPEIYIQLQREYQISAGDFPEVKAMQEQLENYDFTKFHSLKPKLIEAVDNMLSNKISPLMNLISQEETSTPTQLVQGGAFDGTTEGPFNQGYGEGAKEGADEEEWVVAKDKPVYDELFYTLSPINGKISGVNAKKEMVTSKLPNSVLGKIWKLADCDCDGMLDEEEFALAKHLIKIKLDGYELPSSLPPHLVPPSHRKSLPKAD

Compound: O=C1NC(=O)C(c2cnc3ccccn23)=C1c1cn2c3c(cc(F)cc13)CN(C(=O)N1CCCCC1)CC2
Assay: log2 fold change, soluble protein after heating vs DMSO (PISA); higher = thermal stabilisation; K562 cells, 10 uM, 30 min; active = over 0.2 and 3.5 SD of the protein, either way, in both replicates (recomputed)
Summary of the method: (§1)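 K562 cells at 2×10^6 cells/mL were exposed to 10 μM compound for 30 min, then aliquots were heated for 3 min across 48°C-58°C, pooled, and extracted in PBS containing 0.5% NP-40 at 4°C. The supernatant after 21,000xg for 90 min was taken as soluble protein and measured by TMTpro 16plex LC-MS/MS with channel sums equalised. Thermal stability is reported relative to control samples, with values from duplicates. Fold changes are given on a log2 scale.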

log2 fold change, inactive:
ENY2 (UniProt Q9NPA8) -0.023
EGLN1 (UniProt Q9GZT9) 0.014
EIF3K (UniProt Q9UBQ5) -0.019
EED, A0A5F9ZI63 0.065
ELOVL5 isoform 2 (UniProt Q9NYP7) 0.035
ENO1 isoform 2 (UniProt P06733) -0.1
EIF5 (UniProt P55010) -0.075
EMC8 (UniProt O43402) -0.04
EHHADH (UniProt Q08426) -0.011
EIF2AK2 (UniProt P19525) 0.369
EIF4B (UniProt P23588) -0.046
EIF4A3 (UniProt P38919) -0.016
EMD (UniProt P50402) -0.084
EIF4ENIF1 isoform 3 (UniProt Q9NRA8) -0.024
EIF4G2 (UniProt P78344) 0.285
EIF4A1 (UniProt P60842) -0.01
EEF1D isoform 2 (UniProt P29692) -0.001
EEF1B2 (UniProt P24534) -0.007
ELP3 (UniProt Q9H9T3) 0
ENGASE (UniProt Q8NFI3) -0.024
ELP4 (UniProt Q96EB1) 0.011
ELP4 isoform 3 (UniProt Q96EB1) 0.003
ELP6 (UniProt Q0PNE2) -0.087
ENOPH1 (UniProt Q9UHY7) -0.063
ELOF1 (UniProt P60002) -0.1
EI24 (UniProt O14681) 0.053
EIF4A2 isoform 2 (UniProt Q14240) -0.006
EML3 isoform 2 (UniProt Q32P44) 0.224
EIF3H (UniProt O15372) 0.031
EIF5B (UniProt O60841) 0.059
ELP5 isoform 4 (UniProt Q8TE02) -0.026
EHD4 (UniProt Q9H223) -0.042
EIF3I (UniProt Q13347) 0.073

Compound: c1cc(OCCN2CCCCC2)cc(-c2n[nH]c3ccc(-c4nnc[nH]4)cc23)c1
Assay: as above
Summary of the method: as §1

log2 fold change, inactive:
ENY2 (UniProt Q9NPA8) 0.047
EGLN1 (UniProt Q9GZT9) -0.178
EIF3K (UniProt Q9UBQ5) -0.01
EED, A0A5F9ZI63 -0.078
ELOVL5 isoform 2 (UniProt Q9NYP7) -0.158
ENO1 isoform 2 (UniProt P06733) 0.113
EIF5 (UniProt P55010) -0.008
EMC8 (UniProt O43402) -0.018
EHHADH (UniProt Q08426) -0.016
EIF2AK2 (UniProt P19525) -0.276
EIF4B (UniProt P23588) 0.053
EIF4A3 (UniProt P38919) -0.053
EMD (UniProt P50402) -0.141
EIF4ENIF1 isoform 3 (UniProt Q9NRA8) -0.011
EIF4G2 (UniProt P78344) -0.332
EIF4A1 (UniProt P60842) -0.05
EEF1D isoform 2 (UniProt P29692) -0.067
EEF1B2 (UniProt P24534) -0.035
ELP3 (UniProt Q9H9T3) -0.027
ENGASE (UniProt Q8NFI3) -0.012
ELP4 (UniProt Q96EB1) -0.051
ELP4 isoform 3 (UniProt Q96EB1) -0.048
ELP6 (UniProt Q0PNE2) 0
ENOPH1 (UniProt Q9UHY7) -0.009
ELOF1 (UniProt P60002) -0.055
EI24 (UniProt O14681) 0.005
EIF4A2 isoform 2 (UniProt Q14240) -0.064
EML3 isoform 2 (UniProt Q32P44) -0.039
EIF3H (UniProt O15372) -0.084
EIF5B (UniProt O60841) -0.1
ELP5 isoform 4 (UniProt Q8TE02) -0.058
EHD4 (UniProt Q9H223) -0.02
EIF3I (UniProt Q13347) -0.071
